Experiment [1] concerns the target T1, CARM1-FLAG-WT (UniProt Q86X55).
T1 sequence: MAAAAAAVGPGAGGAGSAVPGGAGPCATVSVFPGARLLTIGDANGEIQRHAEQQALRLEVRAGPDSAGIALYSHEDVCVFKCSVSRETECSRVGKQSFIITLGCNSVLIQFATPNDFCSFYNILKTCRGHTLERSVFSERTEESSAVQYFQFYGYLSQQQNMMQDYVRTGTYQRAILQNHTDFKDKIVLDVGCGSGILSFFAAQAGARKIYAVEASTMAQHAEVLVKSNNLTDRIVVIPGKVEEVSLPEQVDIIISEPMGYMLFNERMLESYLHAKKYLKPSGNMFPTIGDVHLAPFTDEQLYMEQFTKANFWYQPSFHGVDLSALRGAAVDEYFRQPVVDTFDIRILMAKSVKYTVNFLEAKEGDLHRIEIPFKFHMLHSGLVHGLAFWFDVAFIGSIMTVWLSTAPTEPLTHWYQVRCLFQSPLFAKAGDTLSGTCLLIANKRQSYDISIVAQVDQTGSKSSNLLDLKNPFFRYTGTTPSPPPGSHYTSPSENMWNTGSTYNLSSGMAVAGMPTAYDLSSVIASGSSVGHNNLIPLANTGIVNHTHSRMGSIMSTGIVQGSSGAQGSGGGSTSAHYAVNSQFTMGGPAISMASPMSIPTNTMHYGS
The experiment is described as follows: co-IP; XPF-Myc, ERCC1 and CARM1-FLAG co-expressed in HEK293; IP with anti-FLAG or anti-Myc antibody, protein G agarose, western blot; 25 mM Tris-HCl pH 7.5, 0.5% NP-40, 20 mM NaCl, 2 mM MgCl2. (In western blotting, separated proteins are transferred to a membrane and probed.)

Experiment [2] addresses T2, GST-CARM1 (UniProt Q86X55).
T2 sequence: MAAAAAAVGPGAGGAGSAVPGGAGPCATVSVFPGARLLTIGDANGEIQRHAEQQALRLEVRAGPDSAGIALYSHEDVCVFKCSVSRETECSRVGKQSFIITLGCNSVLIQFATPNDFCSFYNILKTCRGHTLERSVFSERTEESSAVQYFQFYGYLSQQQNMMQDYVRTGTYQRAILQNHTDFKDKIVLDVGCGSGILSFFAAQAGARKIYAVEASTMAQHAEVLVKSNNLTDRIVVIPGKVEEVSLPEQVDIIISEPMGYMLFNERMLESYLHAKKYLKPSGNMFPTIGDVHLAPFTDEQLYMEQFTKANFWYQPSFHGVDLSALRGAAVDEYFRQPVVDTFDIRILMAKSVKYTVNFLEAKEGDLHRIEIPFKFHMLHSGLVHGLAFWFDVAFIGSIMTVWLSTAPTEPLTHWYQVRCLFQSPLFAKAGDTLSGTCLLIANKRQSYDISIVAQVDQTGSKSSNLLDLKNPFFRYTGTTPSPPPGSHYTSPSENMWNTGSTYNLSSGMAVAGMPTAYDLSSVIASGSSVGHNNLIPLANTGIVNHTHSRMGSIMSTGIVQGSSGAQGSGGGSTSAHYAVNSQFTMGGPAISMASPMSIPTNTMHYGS
In words: pull-down; lysate of HEK293 overexpressing XPF WT-Myc and ERCC1 mixed with purified GST-CARM1; MagneGST glutathione particles; washed three times with His-Lysis buffer; western blot; only the target purified.

Experiment [3] concerns the target T3, METTL23 (UniProt Q86XA0).
T3 sequence: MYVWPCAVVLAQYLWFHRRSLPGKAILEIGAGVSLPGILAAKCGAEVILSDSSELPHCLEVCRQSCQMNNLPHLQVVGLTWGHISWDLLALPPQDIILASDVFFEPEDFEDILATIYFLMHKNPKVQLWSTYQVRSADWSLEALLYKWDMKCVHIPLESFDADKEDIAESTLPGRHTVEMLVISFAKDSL
The experiment is described as follows: co-IP; METTL23 overexpressed in HEK293, endogenous XPF; IP-western blotting.

Experiment [4] has as its target T4, endogenous CARM1 (human (endogenous in HeLa and HEK293)) (UniProt Q86X55).
T4 sequence: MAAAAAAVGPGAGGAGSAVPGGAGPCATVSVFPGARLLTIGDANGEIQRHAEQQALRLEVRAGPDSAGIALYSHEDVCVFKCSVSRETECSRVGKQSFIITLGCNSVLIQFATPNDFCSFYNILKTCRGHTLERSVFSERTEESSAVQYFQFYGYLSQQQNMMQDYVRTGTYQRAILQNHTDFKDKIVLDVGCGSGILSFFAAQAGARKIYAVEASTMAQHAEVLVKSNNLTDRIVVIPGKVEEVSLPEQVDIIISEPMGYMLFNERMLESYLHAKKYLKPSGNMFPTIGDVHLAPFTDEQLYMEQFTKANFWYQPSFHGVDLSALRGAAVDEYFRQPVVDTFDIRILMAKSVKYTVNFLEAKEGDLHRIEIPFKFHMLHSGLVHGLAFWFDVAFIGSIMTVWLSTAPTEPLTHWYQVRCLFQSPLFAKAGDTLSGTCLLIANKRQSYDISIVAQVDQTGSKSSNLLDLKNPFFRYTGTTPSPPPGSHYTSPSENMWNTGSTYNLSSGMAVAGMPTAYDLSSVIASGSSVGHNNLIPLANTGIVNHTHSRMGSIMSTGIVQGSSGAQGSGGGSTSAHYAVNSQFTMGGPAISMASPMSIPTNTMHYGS
In words: co-IP; DOX-induced XPF-Myc in HeLa cells, or endogenous XPF in HEK293 cells, with endogenous CARM1.

Results are given in words; binding and its absence hold for the method and conditions named. Binding seen in cells or lysates may run through a third protein. Some results given as binding are weak or reduced against the parent protein; the word gives no strength. For some assays here: Sequences can lack the tags named with a protein.

B1: XPF WT-Myc (protein, UniProt Q92889 1-916)
chain: MESGQPARRIAMAPLLEYERQLVLELLDTDGLVVCARGLGADRLLYHFLQLHCHPACLVLVLNTQPAEEEYFINQLKIEGVEHLPRRVTNEITSNSRYEVYTQGGVIFATSRILVVDFLTDRIPSDLITGILVYRAHRIIESCQEAFILRLFRQKNKRGFIKAFTDNAVAFDTGFCHVERVMRNLFVRKLYLWPRFHVAVNSFLEQHKPEVVEIHVSMTPTMLAIQTAILDILNACLKELKCHNPSLEVEDLSLENAIGKPFDKTIRHYLDPLWHQLGAKTKSLVQDLKILRTLLQYLSQYDCVTFLNLLESLRATEKAFGQNSGWLFLDSSTSMFINARARVYHLPDAKMSKKEKISEKMEIKEGEETKKELVLESNPKWEALTEVLKEIEAENKESEALGGPGQVLICASDDRTCSQLRDYITLGAEAFLLRLYRKTFEKDSKAEEVWMKFRKEDSSKRIRKSHKRPKDPQNKERASTKERTLKKKKRKLTLTQMVGKPEELEEEGDVEEGYRREISSSPESCPEEIKHEEFDVNLSSDAAFGILKEPLTIIHPLLGCSDPYALTRVLHEVEPRYVVLYDAELTFVRQLEIYRASRPGKPLRVYFLIYGGSTEEQRYLTALRKEKEAFEKLIREKASMVVPEEREGRDETNLDLVRGTASADVSTDTRKAGGQEQNGTQQSIVVDMREFRSELPSLIHRRGIDIEPVTLEVGDYILTPEMCVERKSISDLIGSLNNGRLYSQCISMSRYYKRPVLLIEFDPSKPFSLTSRGALFQEISSNDISSKLTLLTLHFPRLRILWCPSPHATAELFEELKQSKPQPDAATALAITADSETLPESEKYNPGPQDFLLKMPGVNAKNCRSLMHHVKNIAELAALSQDELTSILGNAANAKQLYDFIHTSFAEVVSKGKGKK
For B1, the binding entry in experiment [1] and in experiment [2] was “binds” throughout.

B2: endogenous XPF (protein, UniProt Q92889 1-916)
chain: MESGQPARRIAMAPLLEYERQLVLELLDTDGLVVCARGLGADRLLYHFLQLHCHPACLVLVLNTQPAEEEYFINQLKIEGVEHLPRRVTNEITSNSRYEVYTQGGVIFATSRILVVDFLTDRIPSDLITGILVYRAHRIIESCQEAFILRLFRQKNKRGFIKAFTDNAVAFDTGFCHVERVMRNLFVRKLYLWPRFHVAVNSFLEQHKPEVVEIHVSMTPTMLAIQTAILDILNACLKELKCHNPSLEVEDLSLENAIGKPFDKTIRHYLDPLWHQLGAKTKSLVQDLKILRTLLQYLSQYDCVTFLNLLESLRATEKAFGQNSGWLFLDSSTSMFINARARVYHLPDAKMSKKEKISEKMEIKEGEETKKELVLESNPKWEALTEVLKEIEAENKESEALGGPGQVLICASDDRTCSQLRDYITLGAEAFLLRLYRKTFEKDSKAEEVWMKFRKEDSSKRIRKSHKRPKDPQNKERASTKERTLKKKKRKLTLTQMVGKPEELEEEGDVEEGYRREISSSPESCPEEIKHEEFDVNLSSDAAFGILKEPLTIIHPLLGCSDPYALTRVLHEVEPRYVVLYDAELTFVRQLEIYRASRPGKPLRVYFLIYGGSTEEQRYLTALRKEKEAFEKLIREKASMVVPEEREGRDETNLDLVRGTASADVSTDTRKAGGQEQNGTQQSIVVDMREFRSELPSLIHRRGIDIEPVTLEVGDYILTPEMCVERKSISDLIGSLNNGRLYSQCISMSRYYKRPVLLIEFDPSKPFSLTSRGALFQEISSNDISSKLTLLTLHFPRLRILWCPSPHATAELFEELKQSKPQPDAATALAITADSETLPESEKYNPGPQDFLLKMPGVNAKNCRSLMHHVKNIAELAALSQDELTSILGNAANAKQLYDFIHTSFAEVVSKGKGKK
B2: the binding entry in experiment [3] and in experiment [4] was “binds” in each case.

B3: XPF-Myc induced by DOX in HeLa cells (protein, UniProt Q92889 1-916)
chain: MESGQPARRIAMAPLLEYERQLVLELLDTDGLVVCARGLGADRLLYHFLQLHCHPACLVLVLNTQPAEEEYFINQLKIEGVEHLPRRVTNEITSNSRYEVYTQGGVIFATSRILVVDFLTDRIPSDLITGILVYRAHRIIESCQEAFILRLFRQKNKRGFIKAFTDNAVAFDTGFCHVERVMRNLFVRKLYLWPRFHVAVNSFLEQHKPEVVEIHVSMTPTMLAIQTAILDILNACLKELKCHNPSLEVEDLSLENAIGKPFDKTIRHYLDPLWHQLGAKTKSLVQDLKILRTLLQYLSQYDCVTFLNLLESLRATEKAFGQNSGWLFLDSSTSMFINARARVYHLPDAKMSKKEKISEKMEIKEGEETKKELVLESNPKWEALTEVLKEIEAENKESEALGGPGQVLICASDDRTCSQLRDYITLGAEAFLLRLYRKTFEKDSKAEEVWMKFRKEDSSKRIRKSHKRPKDPQNKERASTKERTLKKKKRKLTLTQMVGKPEELEEEGDVEEGYRREISSSPESCPEEIKHEEFDVNLSSDAAFGILKEPLTIIHPLLGCSDPYALTRVLHEVEPRYVVLYDAELTFVRQLEIYRASRPGKPLRVYFLIYGGSTEEQRYLTALRKEKEAFEKLIREKASMVVPEEREGRDETNLDLVRGTASADVSTDTRKAGGQEQNGTQQSIVVDMREFRSELPSLIHRRGIDIEPVTLEVGDYILTPEMCVERKSISDLIGSLNNGRLYSQCISMSRYYKRPVLLIEFDPSKPFSLTSRGALFQEISSNDISSKLTLLTLHFPRLRILWCPSPHATAELFEELKQSKPQPDAATALAITADSETLPESEKYNPGPQDFLLKMPGVNAKNCRSLMHHVKNIAELAALSQDELTSILGNAANAKQLYDFIHTSFAEVVSKGKGKK
As for B3, in experiment [4], the binding entry is “binds”.

The values are drawn from article PMC12041854, “CARM1/PRMT4 facilitates XPF–ERCC1 heterodimer assembly and maintains nucleotide excision repair activity” (Nucleic Acids Research, 2025).
